{"source": "PubChem BioAssay AID1159578 (Peter MacCallum Cancer Centre, 2015)", "aim": "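Knock-downs that alter how fast lymphatic endothelial cells migrate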 (primary screen)", "cell system": "human lymphatic endothelial cells", "reagents": "siRNA pool against human genes, 40 nM", "duration": "48 h after transfection", "detection": "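High-content imaging of dye-stained cells in a scratch assay measures filled wound area and nuclei per well; duplicate means given as ratio to mock and robust z-score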", "reading the numbers": "migration robust z-score: higher = faster migration into the scratch; nuclei per well: higher = more cells in the well", "call rule": "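Pools averaging fewer than 3300 nuclei are never called; remaining pools count as changed when migration robust z lies outside -2 to 2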", "meaning of the calls": "active = migration changed; inactive = no migration change, or too few cells", "note": "The deposit covers about 18,000 reagents; this is a part drawn at random. About 1,030 of all reagents (5.7%) were called active. 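Inactive calls also include pools with fewer than 3300 nuclei, whose migration was not assessed.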 The raw values are shown without normalisation. Not all columns of the deposit are shown. No sequences are given here."}
The first 2 records, to show the layout:
{"target gene": "CCL3 (C-C motif chemokine ligand 3)", "migration robust z-score": 0.69, "nuclei per well, duplicate mean": 7186, "Call": "inactive"}
{"target gene": "PURG (purine rich element binding protein G)", "migration robust z-score": -1.11, "nuclei per well, duplicate mean": 5656, "Call": "inactive"}

The list itself, from the first entry:
{"target gene": "CCL3 (C-C motif chemokine ligand 3)", "migration robust z-score": 0.69, "nuclei per well, duplicate mean": 7186, "Call": "inactive"}
{"target gene": "PURG (purine rich element binding protein G)", "migration robust z-score": -1.11, "nuclei per well, duplicate mean": 5656, "Call": "inactive"}
{"target gene": "MTERF2 (mitochondrial transcription termination factor 2)", "migration robust z-score": 0.56, "nuclei per well, duplicate mean": 5852, "Call": "inactive"}
{"target gene": "FHOD1 (formin homology 2 domain containing 1)", "migration robust z-score": -0.48, "nuclei per well, duplicate mean": 5788, "Call": "inactive"}
{"target gene": "PRL (prolactin)", "migration robust z-score": 1.22, "nuclei per well, duplicate mean": 6678, "Call": "inactive"}
{"target gene": "YEATS4 (YEATS domain containing 4)", "migration robust z-score": 0.1, "nuclei per well, duplicate mean": 2929, "Call": "inactive"}
{"target gene": "POLD3 (DNA polymerase delta 3, accessory subunit)", "migration robust z-score": -4.04, "nuclei per well, duplicate mean": 2708, "Call": "inactive"}
{"target gene": "OR51G2 (olfactory receptor family 51 subfamily G member 2)", "migration robust z-score": 0.84, "nuclei per well, duplicate mean": 5676, "Call": "inactive"}
{"target gene": "LCE4A (late cornified envelope 4A)", "migration robust z-score": -0.99, "nuclei per well, duplicate mean": 5280, "Call": "inactive"}
{"target gene": "PPY (pancreatic polypeptide)", "migration robust z-score": -2.23, "nuclei per well, duplicate mean": 3958, "Call": "active"}
{"target gene": "SOCS2 (suppressor of cytokine signaling 2)", "migration robust z-score": 0.5, "nuclei per well, duplicate mean": 5417, "Call": "inactive"}
{"target gene": "OAT (ornithine aminotransferase)", "migration robust z-score": 0.13, "nuclei per well, duplicate mean": 5964, "Call": "inactive"}
{"target gene": "TUBB2B (tubulin beta 2B class IIb)", "migration robust z-score": -0.39, "nuclei per well, duplicate mean": 6098, "Call": "inactive"}
{"target gene": "MKRN2 (makorin ring finger protein 2)", "migration robust z-score": 0.39, "nuclei per well, duplicate mean": 5090, "Call": "inactive"}
{"target gene": "SMG9 (SMG9 nonsense mediated mRNA decay factor)", "migration robust z-score": -1.27, "nuclei per well, duplicate mean": 5466, "Call": "inactive"}
{"target gene": "S100A11 (S100 calcium binding protein A11)", "migration robust z-score": 0.38, "nuclei per well, duplicate mean": 5854, "Call": "inactive"}
{"target gene": "KMT2D (lysine methyltransferase 2D)", "migration robust z-score": -1.64, "nuclei per well, duplicate mean": 3289, "Call": "inactive"}
{"target gene": "EIF2AK3 (eukaryotic translation initiation factor 2 alpha kinase 3)", "migration robust z-score": -0.18, "nuclei per well, duplicate mean": 6652, "Call": "inactive"}
{"target gene": "DAPL1 (death associated protein like 1)", "migration robust z-score": 0.69, "nuclei per well, duplicate mean": 6094, "Call": "inactive"}
{"target gene": "NLRP6 (NLR family pyrin domain containing 6)", "migration robust z-score": 0.77, "nuclei per well, duplicate mean": 5177, "Call": "inactive"}
{"target gene": "PGBD4 (piggyBac transposable element derived 4)", "migration robust z-score": -0.22, "nuclei per well, duplicate mean": 6581, "Call": "inactive"}
